This data set has as its system MBP-IbMYC2. The data set is described as follows: EMSA. As to conditions: EMSA/Gel-Shift Kit (Beyotime), manufacturer's protocol; pH and temperature not stated; unlabeled probes as competitors; recombinant protein; protein details: MBP (pETM-40, NcoI/XhoI); label: 5' biotin. Background: A gel shift assay detects complexes by their altered migration in electrophoresis.

For at least one entry, the source does not settle the construct or the ends of the probe.

For the sequence “TTCGGATCGGCACGTGCTTTCCCGCCTTCT (double strand) [IbCHI probe (G-box)]”, the binding result is “binds”. As for “ATGAAGCATGCACGCACGTGCTTGGGTTTT (double strand) [IbDFR probe (G-box)]”, the binding result was “binds”.

Values taken from article PMC10889443.
